Record: PubChem BioAssay AID743458 (Peter MacCallum Cancer Centre, 2014)
Screen: 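Identify genes whose loss lifts vorinostat resistance in colon cancer cells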 (follow-up of hits). Cell system: human HCT116-VR colon cancer cells made resistant to vorinostat. Reagents: single siRNA or pool against human genes, 25 nM per single siRNA. Timing: about 72 h after transfection, including 24 h of drug. Treatment: vorinostat, 2.5 µM final, for 24 h. Detection: 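Live-cell fluorescent viability and luminescent caspase 3/7 activity after vorinostat treatment, background subtracted, mean of duplicate plates, as fold change over mock-transfected wells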. Direction: viability relative to mock: higher = more living cells than mock; caspase activity relative to mock: higher = more apoptosis than mock. Call rule: 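An siRNA counts as active if classed as reduced viability or as caspase activation, otherwise inactive; a hit class needed wells that remained healthy in the absence of drug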.
The whole screen tested about 1,800 reagents; shown is a part drawn at random. Over the whole deposit, 732 (41%) are marked active. 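Calls are per siRNA reagent; a gene was deemed confirmed only if most of its four siRNAs scored.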 A number with no mark means an inactive call. Reagents against one gene are numbered here. Reagent sequences are not shown.

For ANKRD13C-DT #1 the deposit lists viability relative to mock 0.78 (active); caspase activity relative to mock 4.31; viability hit class no change; caspase hit class caspase activation.
ANKRD13C-DT #2 showed viability relative to mock 0.86; caspase activity relative to mock 1.17; viability hit class no change; caspase hit class no change.
After knock-down of ANKRD13C-DT #3, the record shows viability relative to mock 0.55 (active); caspase activity relative to mock 4.48; viability hit class reduced viability; caspase hit class caspase activation.
ANKRD13C-DT #4 gave viability relative to mock 0.58 (active); caspase activity relative to mock 3.57; viability hit class no change; caspase hit class caspase activation.
Silencing of CALM3 #1 resulted in: viability relative to mock 0.42 (active); caspase activity relative to mock 5.62; viability hit class reduced viability; caspase hit class caspase activation.
CALM3 #2 scored viability relative to mock 0.86; caspase activity relative to mock 1.86; viability hit class no change; caspase hit class no change.
CALM3 #3 gave viability relative to mock 0.68; caspase activity relative to mock 1.17; viability hit class no change; caspase hit class no change.
CALM3 #4 gave viability relative to mock 0.96; caspase activity relative to mock 1.38; viability hit class no change; caspase hit class no change.
With knock-down of CPSF1 #1 the results were viability relative to mock 0.96; caspase activity relative to mock 1.52; viability hit class no change; caspase hit class no change.
Depletion of CPSF1 #2 resulted in: viability relative to mock 0.41; caspase activity relative to mock 2.84; viability hit class no change; caspase hit class no change.
After knock-down of CPSF1 #3 the results were viability relative to mock 0.73 (active); caspase activity relative to mock 4.38; viability hit class no change; caspase hit class caspase activation.
With knock-down of CPSF1 #4, the screen gave viability relative to mock 0.88; caspase activity relative to mock 1.05; viability hit class no change; caspase hit class no change.
Silencing of BEND6 #1 resulted in: viability relative to mock 1.09; caspase activity relative to mock 1.19; viability hit class no change; caspase hit class no change.
BEND6 #2 scored viability relative to mock 0.9; caspase activity relative to mock 1.07; viability hit class no change; caspase hit class no change.
BEND6 #3 showed viability relative to mock 0.99; caspase activity relative to mock 1.07; viability hit class no change; caspase hit class no change.
Knock-down of BEND6 #4 came out at: viability relative to mock 0.54 (active); caspase activity relative to mock 5.56; viability hit class reduced viability; caspase hit class caspase activation.
BICDL1 #1 gave viability relative to mock 0.66; caspase activity relative to mock 1; viability hit class no change; caspase hit class no change.
Depletion of BICDL1 #2 came out at: viability relative to mock 0.34 (active); caspase activity relative to mock 1.13; viability hit class reduced viability; caspase hit class no change.
With knock-down of BICDL1 #3, the record shows viability relative to mock 0.72; caspase activity relative to mock 2.25; viability hit class no change; caspase hit class no change.
With knock-down of BICDL1 #4, the record shows viability relative to mock 0.86; caspase activity relative to mock 1.12; viability hit class no change; caspase hit class no change.
Silencing of MTFR2 #1 came out at: viability relative to mock 0.89; caspase activity relative to mock 1.46; viability hit class no change; caspase hit class no change.
Against MTFR2 #2 the deposit lists viability relative to mock 0.52 (active); caspase activity relative to mock 1.05; viability hit class reduced viability; caspase hit class no change.
Against MTFR2 #3, the values are viability relative to mock 0.94; caspase activity relative to mock 1.27; viability hit class no change; caspase hit class no change.
With knock-down of MTFR2 #4, the screen gave viability relative to mock 0.44 (active); caspase activity relative to mock 1.08; viability hit class reduced viability; caspase hit class no change.
GSX2 #1 showed viability relative to mock 0.88; caspase activity relative to mock 0.9; viability hit class no change; caspase hit class no change.
After knock-down of GSX2 #2 the results were viability relative to mock 0.66 (active); caspase activity relative to mock 3.7; viability hit class no change; caspase hit class caspase activation.
For GSX2 #3 the deposit lists viability relative to mock 0.94; caspase activity relative to mock 0.92; viability hit class no change; caspase hit class no change.
Depletion of GSX2 #4 gave: viability relative to mock 0.82; caspase activity relative to mock 2.31; viability hit class no change; caspase hit class no change.

3 neighbouring records already listed, for reference:
CALM3 #1: viability relative to mock = 0.42 (active); caspase activity relative to mock = 5.62; viability hit class = reduced viability; caspase hit class = caspase activation
CALM3 #2: viability relative to mock = 0.86; caspase activity relative to mock = 1.86; viability hit class = no change; caspase hit class = no change
CALM3 #3: viability relative to mock = 0.68; caspase activity relative to mock = 1.17; viability hit class = no change; caspase hit class = no change
